The values below come from patent US20220096411A1, “COMBINING METABOLIC STIMULATION AND AMINO ACIDS TO SENSITIZE TOLERANT BACTERIA TO ANTIBIOTICS” (priority 2019, published 2022).

For the test, the system named is Escherichia coli K12 strain MG1655. Briefly: MIC determination (metabolite-enabled MIC from optical density dose-response). The note with it: with pyruvate (FIG. 2E) or without metabolic stimulant (FIG. 2F); ampicillin potentiated, comparators D-cycloserine, ciprofloxacin, gentamicin are the non-β-lactams. It is filed as cell-based.

In the case of `O=C(O)c1cn(C2CC2)c2cc(N3CCNCC3)c(F)cc2c1=O` [ciprofloxacin, reference compound], the “potentiation of the antibiotic by D-amino acids” value is listed as “specific to β-lactam antibiotics”.
